Measurements reported in PubChem BioAssay AID1259254 (NCATS, 2017)

- Aim: 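Finding genes that stop cells copying their DNA twice in one cycle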 (primary screen)
- Cell system: human HCT116 colorectal cancer cells
- Reagents: single siRNA against human genes
- Time to read-out: 3 days
- Measured: 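Nuclei stained with Hoechst and imaged; cell-cycle phase assigned by DNA content; G2 share scaled per plate, non-targeting siRNA 0%, GMNN siRNA 100%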
- Direction: G2 robust z-score and G2 cells, % of GMNN control: higher = more G2 cells, more excess DNA replication
- Active means: 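Active siRNAs have a G2 robust z of 5 or more median absolute deviations over the median, which in these data means about 38% or higher of GMNN control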
The whole screen tested about 59,000 reagents; below is a random part of them. About 1,550 of them (2.6%) were called active. 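G2 share is only a proxy for re-replication; each gene was hit by three separate siRNAs, and active genes were retested.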 A number with no mark means an inactive call. Reagents against one gene are numbered here. Further read-outs or replicates are left out here. Not given: the amount of reagent.

Gene | siRNA no. | G2 robust z-score | G2 cells, % of GMNN control
PGBDF (GeneID 146853) | 1 | -1.31 | -6.22
PGBDF (GeneID 146853) | 2 | -0.189 | 1.64
PGBDF (GeneID 146853) | 3 | -0.691 | -1.89
TM7SF2 (GeneID 7108) | 1 | -0.623 | -1.42
TM7SF2 (GeneID 7108) | 2 | 3.24 | 25.8
TM7SF2 (GeneID 7108) | 3 | -0.611 | -1.33
DNAI2 (GeneID 64446) | 1 | -0.671 | -1.76
DNAI2 (GeneID 64446) | 2 | 0.731 | 8.11
DNAI2 (GeneID 64446) | 3 | 0.957 | 9.7
EGR3 (GeneID 1960) | 1 | 0.164 | 4.12
EGR3 (GeneID 1960) | 2 | -0.567 | -1.02
EGR3 (GeneID 1960) | 3 | -0.68 | -1.82
KDM6B (GeneID 23135) | 1 | -0.851 | -3.02
KDM6B (GeneID 23135) | 2 | 0.756 | 8.29
KDM6B (GeneID 23135) | 3 | 0.344 | 5.39
WDR6 (GeneID 11180) | 1 | -0.857 | -3.06
WDR6 (GeneID 11180) | 2 | -0.78 | -2.52
WDR6 (GeneID 11180) | 3 | -0.174 | 1.74
PFN2 (GeneID 5217) | 1 | -0.39 | 0.224
PFN2 (GeneID 5217) | 2 | 0.745 | 8.21
PFN2 (GeneID 5217) | 3 | 0.632 | 7.42
NCAPD3 (GeneID 23310) | 1 | -0.202 | 1.55
NCAPD3 (GeneID 23310) | 2 | 3.06 | 24.5
NCAPD3 (GeneID 23310) | 3 | 4.13 | 32
DEGS1 (GeneID 8560) | 1 | -0.672 | -1.76
DEGS1 (GeneID 8560) | 2 | 1.78 | 15.5
DEGS1 (GeneID 8560) | 3 | 0.584 | 7.08
ZNF70 (GeneID 7621) | 1 | -0.568 | -1.03
ZNF70 (GeneID 7621) | 2 | 1.24 | 11.7
ZNF70 (GeneID 7621) | 3 | -0.57 | -1.05

Single entries from the list:
EGR3 (GeneID 1960) #3, G2 cells, % of GMNN control = -1.82
Entry of DEGS1 (GeneID 8560) #3 under “G2 cells, % of GMNN control”: 7.08
NCAPD3 (GeneID 23310) #2, G2 robust z-score = 3.06
